At least one compound was matched to its structure with a doubt left. Some entries repeat one wording, which the source may state once for all of them.
Test: Treatment of diabetes mellitus with other HDAC regulators instead of givinostat (Example 7)
Format: in vivo
Details: used instead of givinostat; model and dose not stated

## CCCCCCCCc1ccc(CCC(N)(CO)CO)cc1 [fingolimod]
  diabetes mellitus outcome: similarly cured

## Cc1[nH]c2ccccc2c1CCNCc1ccc(/C=C/C(=O)NO)cc1 [panobinostat]
  diabetes mellitus outcome: similarly cured
